{"sequences": {"note": "Chains of the proteins cited; added tags and fusions are not shown. Lines headed by an entry give the natural chain unless they say otherwise; changes in a name come on top.", "UniProt Q96JI7": "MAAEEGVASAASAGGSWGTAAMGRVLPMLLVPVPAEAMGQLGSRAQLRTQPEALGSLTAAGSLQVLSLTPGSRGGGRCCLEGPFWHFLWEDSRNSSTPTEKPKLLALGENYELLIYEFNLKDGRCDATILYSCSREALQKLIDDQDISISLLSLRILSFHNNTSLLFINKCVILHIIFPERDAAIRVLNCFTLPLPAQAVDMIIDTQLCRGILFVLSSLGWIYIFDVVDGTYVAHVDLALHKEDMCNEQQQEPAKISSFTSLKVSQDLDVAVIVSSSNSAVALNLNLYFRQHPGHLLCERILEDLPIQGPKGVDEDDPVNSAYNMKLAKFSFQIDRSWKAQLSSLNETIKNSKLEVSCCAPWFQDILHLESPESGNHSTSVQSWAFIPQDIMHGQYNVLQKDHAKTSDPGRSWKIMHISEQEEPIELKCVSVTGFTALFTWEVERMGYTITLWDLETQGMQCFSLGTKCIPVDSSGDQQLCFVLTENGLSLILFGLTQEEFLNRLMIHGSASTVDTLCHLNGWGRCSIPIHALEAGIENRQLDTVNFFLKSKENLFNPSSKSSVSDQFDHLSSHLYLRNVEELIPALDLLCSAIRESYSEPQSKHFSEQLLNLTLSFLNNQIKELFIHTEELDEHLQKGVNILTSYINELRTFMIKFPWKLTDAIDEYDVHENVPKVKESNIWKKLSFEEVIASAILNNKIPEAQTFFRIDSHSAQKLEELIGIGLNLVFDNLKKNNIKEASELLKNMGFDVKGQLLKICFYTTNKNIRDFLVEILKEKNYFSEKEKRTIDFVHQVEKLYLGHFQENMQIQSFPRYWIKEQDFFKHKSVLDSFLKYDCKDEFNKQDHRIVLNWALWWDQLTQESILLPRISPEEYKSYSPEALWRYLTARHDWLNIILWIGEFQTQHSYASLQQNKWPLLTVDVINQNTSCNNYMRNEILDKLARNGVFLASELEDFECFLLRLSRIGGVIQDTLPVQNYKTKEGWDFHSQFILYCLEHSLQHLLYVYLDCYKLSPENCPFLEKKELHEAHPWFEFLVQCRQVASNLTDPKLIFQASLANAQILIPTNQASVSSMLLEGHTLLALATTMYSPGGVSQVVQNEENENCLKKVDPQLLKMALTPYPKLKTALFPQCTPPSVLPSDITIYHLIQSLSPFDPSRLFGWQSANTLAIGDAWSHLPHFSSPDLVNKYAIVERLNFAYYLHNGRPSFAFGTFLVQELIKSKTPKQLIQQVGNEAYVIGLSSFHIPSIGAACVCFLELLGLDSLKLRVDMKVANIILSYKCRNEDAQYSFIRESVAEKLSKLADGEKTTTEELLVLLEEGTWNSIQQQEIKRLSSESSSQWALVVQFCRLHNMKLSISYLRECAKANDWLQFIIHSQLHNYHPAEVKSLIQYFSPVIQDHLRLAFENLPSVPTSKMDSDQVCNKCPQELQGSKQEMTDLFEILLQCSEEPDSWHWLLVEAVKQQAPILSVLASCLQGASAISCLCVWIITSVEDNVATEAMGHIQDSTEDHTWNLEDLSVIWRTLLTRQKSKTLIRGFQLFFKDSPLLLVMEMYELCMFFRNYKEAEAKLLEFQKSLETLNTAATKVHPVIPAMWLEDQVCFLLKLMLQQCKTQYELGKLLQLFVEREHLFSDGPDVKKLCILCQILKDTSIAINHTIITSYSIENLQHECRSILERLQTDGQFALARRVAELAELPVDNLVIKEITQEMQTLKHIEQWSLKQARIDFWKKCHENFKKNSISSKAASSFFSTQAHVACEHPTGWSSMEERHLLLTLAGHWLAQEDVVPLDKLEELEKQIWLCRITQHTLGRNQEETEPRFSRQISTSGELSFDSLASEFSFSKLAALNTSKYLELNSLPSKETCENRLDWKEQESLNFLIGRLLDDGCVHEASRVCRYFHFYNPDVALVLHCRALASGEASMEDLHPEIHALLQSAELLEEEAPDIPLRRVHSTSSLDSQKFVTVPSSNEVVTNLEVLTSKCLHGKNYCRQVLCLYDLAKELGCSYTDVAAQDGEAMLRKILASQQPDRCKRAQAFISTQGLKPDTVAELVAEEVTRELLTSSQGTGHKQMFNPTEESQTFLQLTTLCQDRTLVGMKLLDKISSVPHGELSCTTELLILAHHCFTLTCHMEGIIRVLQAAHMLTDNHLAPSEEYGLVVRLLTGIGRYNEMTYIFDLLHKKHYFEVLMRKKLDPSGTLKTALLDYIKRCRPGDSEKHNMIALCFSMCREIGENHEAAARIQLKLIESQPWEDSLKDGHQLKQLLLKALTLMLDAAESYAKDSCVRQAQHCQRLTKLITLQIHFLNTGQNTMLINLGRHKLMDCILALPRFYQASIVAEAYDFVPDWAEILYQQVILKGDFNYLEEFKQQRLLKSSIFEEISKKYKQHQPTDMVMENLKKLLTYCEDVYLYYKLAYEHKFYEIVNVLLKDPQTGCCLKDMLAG", "UniProt Q6PIZ9": "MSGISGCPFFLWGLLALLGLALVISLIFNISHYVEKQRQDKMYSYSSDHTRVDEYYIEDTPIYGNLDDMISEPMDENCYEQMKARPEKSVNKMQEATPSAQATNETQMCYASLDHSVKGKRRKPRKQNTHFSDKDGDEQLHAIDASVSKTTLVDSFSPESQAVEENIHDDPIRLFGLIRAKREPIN", "UniProt Q03518, whole entry": "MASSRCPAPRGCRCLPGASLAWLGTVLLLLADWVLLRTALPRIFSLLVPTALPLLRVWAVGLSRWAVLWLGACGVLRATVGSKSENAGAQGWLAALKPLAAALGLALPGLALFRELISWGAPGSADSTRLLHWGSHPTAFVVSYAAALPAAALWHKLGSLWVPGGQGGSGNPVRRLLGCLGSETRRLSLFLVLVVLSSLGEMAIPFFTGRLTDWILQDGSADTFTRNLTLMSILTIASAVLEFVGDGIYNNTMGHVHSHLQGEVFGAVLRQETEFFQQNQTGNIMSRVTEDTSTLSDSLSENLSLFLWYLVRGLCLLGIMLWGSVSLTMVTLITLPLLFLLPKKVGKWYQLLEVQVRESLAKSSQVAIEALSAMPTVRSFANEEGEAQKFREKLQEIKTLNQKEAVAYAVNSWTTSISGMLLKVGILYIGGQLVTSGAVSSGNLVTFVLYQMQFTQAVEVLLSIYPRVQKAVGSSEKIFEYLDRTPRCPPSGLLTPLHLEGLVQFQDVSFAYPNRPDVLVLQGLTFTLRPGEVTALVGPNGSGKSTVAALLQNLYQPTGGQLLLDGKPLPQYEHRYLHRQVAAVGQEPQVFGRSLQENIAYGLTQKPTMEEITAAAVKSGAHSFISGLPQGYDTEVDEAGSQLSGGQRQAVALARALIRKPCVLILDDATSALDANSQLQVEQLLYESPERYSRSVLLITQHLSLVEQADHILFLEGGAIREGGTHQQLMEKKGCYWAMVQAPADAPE", "UniProt Q96D46": "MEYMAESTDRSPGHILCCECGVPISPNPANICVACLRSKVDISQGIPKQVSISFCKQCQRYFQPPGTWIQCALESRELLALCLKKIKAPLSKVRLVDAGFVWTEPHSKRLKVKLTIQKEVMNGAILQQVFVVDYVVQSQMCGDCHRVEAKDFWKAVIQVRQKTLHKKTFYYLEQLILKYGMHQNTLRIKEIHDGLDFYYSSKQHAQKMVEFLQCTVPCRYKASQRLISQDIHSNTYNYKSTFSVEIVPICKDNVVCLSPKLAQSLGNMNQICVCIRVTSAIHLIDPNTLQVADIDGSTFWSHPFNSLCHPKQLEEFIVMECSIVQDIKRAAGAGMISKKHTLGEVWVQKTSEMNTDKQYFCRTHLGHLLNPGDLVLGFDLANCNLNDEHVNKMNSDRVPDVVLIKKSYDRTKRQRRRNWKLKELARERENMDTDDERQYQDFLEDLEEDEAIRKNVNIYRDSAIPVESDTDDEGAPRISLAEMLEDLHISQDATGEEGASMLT", "UniProt Q969M7": "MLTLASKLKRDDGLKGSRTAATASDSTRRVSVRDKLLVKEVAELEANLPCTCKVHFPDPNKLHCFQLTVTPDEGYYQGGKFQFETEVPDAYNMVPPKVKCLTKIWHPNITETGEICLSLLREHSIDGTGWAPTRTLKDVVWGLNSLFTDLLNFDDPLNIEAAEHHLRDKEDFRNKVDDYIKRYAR", "UniProt P07910": "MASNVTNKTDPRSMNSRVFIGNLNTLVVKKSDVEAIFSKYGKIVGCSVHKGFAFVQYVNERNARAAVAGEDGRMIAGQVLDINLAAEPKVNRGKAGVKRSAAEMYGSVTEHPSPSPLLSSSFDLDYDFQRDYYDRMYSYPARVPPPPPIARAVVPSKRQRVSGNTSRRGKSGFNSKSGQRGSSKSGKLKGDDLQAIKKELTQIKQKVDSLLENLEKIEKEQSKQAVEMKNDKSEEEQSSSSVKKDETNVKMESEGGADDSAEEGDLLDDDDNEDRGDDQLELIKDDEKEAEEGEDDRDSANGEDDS", "UniProt A2RU67": "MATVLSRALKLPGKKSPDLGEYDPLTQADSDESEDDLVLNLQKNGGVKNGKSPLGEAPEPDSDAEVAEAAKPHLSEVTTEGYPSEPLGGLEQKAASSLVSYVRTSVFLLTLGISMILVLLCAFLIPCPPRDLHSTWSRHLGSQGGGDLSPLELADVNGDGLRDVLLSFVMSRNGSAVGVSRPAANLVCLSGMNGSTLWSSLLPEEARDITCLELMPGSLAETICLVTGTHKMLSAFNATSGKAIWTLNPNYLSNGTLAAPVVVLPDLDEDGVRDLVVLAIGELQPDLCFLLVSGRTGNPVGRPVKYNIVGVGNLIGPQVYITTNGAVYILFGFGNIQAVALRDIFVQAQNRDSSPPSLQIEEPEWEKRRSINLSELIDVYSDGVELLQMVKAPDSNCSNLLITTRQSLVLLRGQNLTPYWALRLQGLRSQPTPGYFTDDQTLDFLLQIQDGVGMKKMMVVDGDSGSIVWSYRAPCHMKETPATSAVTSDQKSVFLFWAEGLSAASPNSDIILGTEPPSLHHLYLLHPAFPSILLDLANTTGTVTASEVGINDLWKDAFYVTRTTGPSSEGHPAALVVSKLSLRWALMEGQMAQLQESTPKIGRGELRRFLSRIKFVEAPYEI", "UniProt O14795": "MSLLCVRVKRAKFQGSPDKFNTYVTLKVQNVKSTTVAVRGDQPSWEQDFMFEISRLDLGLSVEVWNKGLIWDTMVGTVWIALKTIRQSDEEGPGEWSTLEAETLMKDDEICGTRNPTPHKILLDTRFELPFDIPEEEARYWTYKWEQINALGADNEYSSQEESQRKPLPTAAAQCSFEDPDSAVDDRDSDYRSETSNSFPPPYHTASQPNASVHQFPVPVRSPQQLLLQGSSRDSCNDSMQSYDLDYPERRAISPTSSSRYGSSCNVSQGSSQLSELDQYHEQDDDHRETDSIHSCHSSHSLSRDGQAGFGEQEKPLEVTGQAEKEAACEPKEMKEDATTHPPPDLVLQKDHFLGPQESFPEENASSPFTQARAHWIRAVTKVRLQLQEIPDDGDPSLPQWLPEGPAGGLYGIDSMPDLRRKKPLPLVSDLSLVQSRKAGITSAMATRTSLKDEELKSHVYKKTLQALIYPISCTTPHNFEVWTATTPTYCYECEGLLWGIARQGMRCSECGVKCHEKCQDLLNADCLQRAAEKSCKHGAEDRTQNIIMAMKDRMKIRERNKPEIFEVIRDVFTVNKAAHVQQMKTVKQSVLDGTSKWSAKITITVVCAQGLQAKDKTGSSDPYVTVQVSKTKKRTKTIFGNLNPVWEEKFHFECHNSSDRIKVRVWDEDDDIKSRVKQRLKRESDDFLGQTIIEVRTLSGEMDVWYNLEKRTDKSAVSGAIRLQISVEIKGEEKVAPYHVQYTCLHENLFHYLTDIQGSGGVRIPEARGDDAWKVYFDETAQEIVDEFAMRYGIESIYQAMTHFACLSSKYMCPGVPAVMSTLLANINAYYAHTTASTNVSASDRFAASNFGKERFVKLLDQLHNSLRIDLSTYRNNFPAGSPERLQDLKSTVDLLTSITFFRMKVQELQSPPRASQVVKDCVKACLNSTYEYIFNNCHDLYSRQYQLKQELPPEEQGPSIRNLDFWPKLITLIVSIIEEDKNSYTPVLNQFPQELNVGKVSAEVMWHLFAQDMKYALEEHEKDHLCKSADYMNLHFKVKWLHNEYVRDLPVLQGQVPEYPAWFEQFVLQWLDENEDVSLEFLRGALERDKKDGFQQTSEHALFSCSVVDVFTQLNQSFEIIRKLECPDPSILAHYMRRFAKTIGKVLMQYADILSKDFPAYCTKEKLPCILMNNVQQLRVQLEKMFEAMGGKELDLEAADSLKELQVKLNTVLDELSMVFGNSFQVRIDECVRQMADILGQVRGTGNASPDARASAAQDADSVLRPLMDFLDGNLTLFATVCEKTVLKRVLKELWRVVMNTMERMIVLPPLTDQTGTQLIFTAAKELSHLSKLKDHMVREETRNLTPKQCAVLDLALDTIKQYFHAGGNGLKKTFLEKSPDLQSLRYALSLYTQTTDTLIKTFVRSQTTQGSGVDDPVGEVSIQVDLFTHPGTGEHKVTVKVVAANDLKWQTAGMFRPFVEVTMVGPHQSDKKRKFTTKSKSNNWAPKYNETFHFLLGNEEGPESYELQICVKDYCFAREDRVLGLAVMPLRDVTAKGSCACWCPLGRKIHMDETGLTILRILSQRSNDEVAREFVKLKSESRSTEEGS"}, "source": "the supplement of paper PMC6411743", "compound": "Nc1ncnc2c1ncn2[C@@H]1O[C@H](COP(=O)(O)OP(=O)(O)OP(=O)(O)O)[C@@H](O)[C@H]1O [adenosine triphosphate]", "assay": "NP40-soluble protein abundance relative to vehicle (solubility fold change) (ratio); higher = more soluble protein in presence of ATP", "outline": "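Data come from three independent experiments in which Dounce-homogenised Jurkat crude lysate was treated at eight concentrations from 0.1 to 10 mM. Treatment ran 10 min at room temperature and then 3 min at 37 °C, after which 0.8% NP40 and benzonase were added for 60 min at 4 °C before ultracentrifugation. The supernatant underwent TMT labelling and LC-MS/MS, and vsn-normalised intensities were expressed as fold change against the detergent-processed vehicle in each replicate.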", "note": "± gives the standard deviation of the averaged measurements. The entries are a selection whose mix differs from that of the whole data set.", "data": [{"target": "C4B7M2 and related entries (UniProt Q96JI7)", "values": [{"measurement": "NP40-soluble protein abundance", "setting": "concentration: 1mM", "value": "1.01 ± 0.14"}, {"measurement": "NP40-soluble protein abundance", "setting": "concentration: 2mM", "value": "0.979 ± 0.13"}, {"measurement": "NP40-soluble protein abundance", "setting": "concentration: 4mM", "value": "1.03 ± 0.15"}, {"measurement": "NP40-soluble protein abundance", "setting": "concentration: 6mM", "value": "0.907 ± 0.089"}, {"measurement": "NP40-soluble protein abundance", "setting": "concentration: 8mM", "value": "1.06 ± 0.084"}, {"measurement": "NP40-soluble protein abundance", "setting": "concentration: 10mM", "value": "1 ± 0.23"}]}, {"target": "C9J2Q2 and related entries (UniProt Q8N5M1)", "values": [{"measurement": "NP40-soluble protein abundance", "setting": "concentration: 1mM", "value": "1.03 ± 0.13"}, {"measurement": "NP40-soluble protein abundance", "setting": "concentration: 2mM", "value": "1.01 ± 0.11"}, {"measurement": "NP40-soluble protein abundance", "setting": "concentration: 4mM", "value": "0.996 ± 0.14"}, {"measurement": "NP40-soluble protein abundance", "setting": "concentration: 6mM", "value": "0.901 ± 0.16"}, {"measurement": "NP40-soluble protein abundance", "setting": "concentration: 8mM", "value": "1.11 ± 0.11"}, {"measurement": "NP40-soluble protein abundance", "setting": "concentration: 10mM", "value": "1.03 ± 0.091"}]}, {"target": "C9JF66 and related entries (UniProt Q6PIZ9)", "values": [{"measurement": "NP40-soluble protein abundance", "setting": "concentration: 1mM", "value": "0.854 ± 0.11"}, {"measurement": "NP40-soluble protein abundance", "setting": "concentration: 2mM", "value": "0.913 ± 0.093"}, {"measurement": "NP40-soluble protein abundance", "setting": "concentration: 4mM", "value": "0.881 ± 0.081"}, {"measurement": "NP40-soluble protein abundance", "setting": "concentration: 6mM", "value": "0.927 ± 0.021"}, {"measurement": "NP40-soluble protein abundance", "setting": "concentration: 8mM", "value": "0.854 ± 0.071"}, {"measurement": "NP40-soluble protein abundance", "setting": "concentration: 10mM", "value": "0.855 ± 0.048"}]}, {"target": "D6R9Q7 and related entries (UniProt Q8NBW4)", "values": [{"measurement": "NP40-soluble protein abundance", "setting": "concentration: 1mM", "value": "0.926 ± 0.04"}, {"measurement": "NP40-soluble protein abundance", "setting": "concentration: 2mM", "value": "0.945 ± 0.022"}, {"measurement": "NP40-soluble protein abundance", "setting": "concentration: 4mM", "value": "1.01 ± 0.032"}, {"measurement": "NP40-soluble protein abundance", "setting": "concentration: 6mM", "value": "1.03 ± 0.051"}, {"measurement": "NP40-soluble protein abundance", "setting": "concentration: 8mM", "value": "0.899 ± 0.057"}, {"measurement": "NP40-soluble protein abundance", "setting": "concentration: 10mM", "value": "0.915 ± 0.052"}]}, {"target": "A6NJD9 and related entries (UniProt Q16540)", "values": [{"measurement": "NP40-soluble protein abundance", "setting": "concentration: 1mM", "value": "1.01 ± 0.075"}, {"measurement": "NP40-soluble protein abundance", "setting": "concentration: 2mM", "value": "0.92 ± 0.12"}, {"measurement": "NP40-soluble protein abundance", "setting": "concentration: 4mM", "value": "0.916 ± 0.15"}, {"measurement": "NP40-soluble protein abundance", "setting": "concentration: 6mM", "value": "0.833 ± 0.22"}, {"measurement": "NP40-soluble protein abundance", "setting": "concentration: 8mM", "value": "0.927 ± 0.22"}, {"measurement": "NP40-soluble protein abundance", "setting": "concentration: 10mM", "value": "0.856 ± 0.17"}]}, {"target": "A0A140T9T7|Q03518 (UniProt Q03518)", "values": [{"measurement": "NP40-soluble protein abundance", "setting": "concentration: 1mM", "value": "1.01 ± 0.034"}, {"measurement": "NP40-soluble protein abundance", "setting": "concentration: 2mM", "value": "0.977 ± 0.036"}, {"measurement": "NP40-soluble protein abundance", "setting": "concentration: 4mM", "value": "0.971 ± 0.023"}, {"measurement": "NP40-soluble protein abundance", "setting": "concentration: 6mM", "value": "1.01 ± 0.067"}, {"measurement": "NP40-soluble protein abundance", "setting": "concentration: 8mM", "value": "0.996 ± 0.041"}, {"measurement": "NP40-soluble protein abundance", "setting": "concentration: 10mM", "value": "0.987 ± 0.028"}]}, {"target": "C9JA08 and related entries (UniProt Q96D46)", "values": [{"measurement": "NP40-soluble protein abundance", "setting": "concentration: 1mM", "value": "0.913 ± 0.022"}, {"measurement": "NP40-soluble protein abundance", "setting": "concentration: 2mM", "value": "0.916 ± 0.043"}, {"measurement": "NP40-soluble protein abundance", "setting": "concentration: 4mM", "value": "0.908 ± 0.052"}, {"measurement": "NP40-soluble protein abundance", "setting": "concentration: 6mM", "value": "0.877 ± 0.05"}, {"measurement": "NP40-soluble protein abundance", "setting": "concentration: 8mM", "value": "0.89 ± 0.075"}, {"measurement": "NP40-soluble protein abundance", "setting": "concentration: 10mM", "value": "0.88 ± 0.052"}]}, {"target": "C9J9P8 and related entries (UniProt Q969M7)", "values": [{"measurement": "NP40-soluble protein abundance", "setting": "concentration: 1mM", "value": "0.915 ± 0.077"}, {"measurement": "NP40-soluble protein abundance", "setting": "concentration: 2mM", "value": "0.938 ± 0.046"}, {"measurement": "NP40-soluble protein abundance", "setting": "concentration: 4mM", "value": "0.902 ± 0.073"}, {"measurement": "NP40-soluble protein abundance", "setting": "concentration: 6mM", "value": "0.93 ± 0.044"}, {"measurement": "NP40-soluble protein abundance", "setting": "concentration: 8mM", "value": "0.907 ± 0.059"}, {"measurement": "NP40-soluble protein abundance", "setting": "concentration: 10mM", "value": "0.86 ± 0.13"}]}, {"target": "B2R5W2 and related entries (UniProt P07910)", "values": [{"measurement": "NP40-soluble protein abundance", "setting": "concentration: 1mM", "value": "0.981 ± 0.087"}, {"measurement": "NP40-soluble protein abundance", "setting": "concentration: 2mM", "value": "0.926 ± 0.14"}, {"measurement": "NP40-soluble protein abundance", "setting": "concentration: 4mM", "value": "0.899 ± 0.1"}, {"measurement": "NP40-soluble protein abundance", "setting": "concentration: 6mM", "value": "0.987 ± 0.16"}, {"measurement": "NP40-soluble protein abundance", "setting": "concentration: 8mM", "value": "0.896 ± 0.098"}, {"measurement": "NP40-soluble protein abundance", "setting": "concentration: 10mM", "value": "0.899 ± 0.1"}]}, {"target": "D6RB01 and related entries (UniProt Q9Y6X4)", "values": [{"measurement": "NP40-soluble protein abundance", "setting": "concentration: 1mM", "value": "0.922 ± 0.048"}, {"measurement": "NP40-soluble protein abundance", "setting": "concentration: 2mM", "value": "0.894 ± 0.022"}, {"measurement": "NP40-soluble protein abundance", "setting": "concentration: 4mM", "value": "0.9183 ± 0.0089"}, {"measurement": "NP40-soluble protein abundance", "setting": "concentration: 6mM", "value": "0.9357 ± 0.0011"}, {"measurement": "NP40-soluble protein abundance", "setting": "concentration: 8mM", "value": "0.88 ± 0.019"}, {"measurement": "NP40-soluble protein abundance", "setting": "concentration: 10mM", "value": "0.901 ± 0.028"}]}, {"target": "B3KW44 and related entries (UniProt Q9H825+E7ETE0+B5ME25+B3KW44)", "values": [{"measurement": "NP40-soluble protein abundance", "setting": "concentration: 1mM", "value": "0.927 ± 0.17"}, {"measurement": "NP40-soluble protein abundance", "setting": "concentration: 2mM", "value": "0.972 ± 0.041"}, {"measurement": "NP40-soluble protein abundance", "setting": "concentration: 4mM", "value": "1.02 ± 0.11"}, {"measurement": "NP40-soluble protein abundance", "setting": "concentration: 6mM", "value": "1.02 ± 0.11"}, {"measurement": "NP40-soluble protein abundance", "setting": "concentration: 8mM", "value": "0.971 ± 0.089"}, {"measurement": "NP40-soluble protein abundance", "setting": "concentration: 10mM", "value": "1.06 ± 0.11"}]}, {"target": "A0A0G2JLV7|A0A0G2JMI0|A0A0G2JNK8|A0A0G2JNU6|A0A0G2JP18|A0A0G2JQ50|A0A140T8W3|Q6GTX8 and related entries (UniProt Q6GTX8)", "values": [{"measurement": "NP40-soluble protein abundance", "setting": "concentration: 1mM", "value": "0.984 ± 0.12"}, {"measurement": "NP40-soluble protein abundance", "setting": "concentration: 2mM", "value": "0.983 ± 0.049"}, {"measurement": "NP40-soluble protein abundance", "setting": "concentration: 4mM", "value": "0.993 ± 0.071"}, {"measurement": "NP40-soluble protein abundance", "setting": "concentration: 6mM", "value": "0.991 ± 0.07"}, {"measurement": "NP40-soluble protein abundance", "setting": "concentration: 8mM", "value": "0.977 ± 0.046"}, {"measurement": "NP40-soluble protein abundance", "setting": "concentration: 10mM", "value": "0.889 ± 0.069"}]}, {"target": "UniProt A2RU67", "values": [{"measurement": "NP40-soluble protein abundance", "setting": "concentration: 1mM", "value": "1.01 ± 0.088"}, {"measurement": "NP40-soluble protein abundance", "setting": "concentration: 2mM", "value": "1.01 ± 0.03"}, {"measurement": "NP40-soluble protein abundance", "setting": "concentration: 4mM", "value": "1.02 ± 0.052"}, {"measurement": "NP40-soluble protein abundance", "setting": "concentration: 6mM", "value": "1.04 ± 0.038"}, {"measurement": "NP40-soluble protein abundance", "setting": "concentration: 8mM", "value": "0.9724 ± 0.0062"}, {"measurement": "NP40-soluble protein abundance", "setting": "concentration: 10mM", "value": "0.938 ± 0.077"}]}, {"target": "B1AM27 and related entries (UniProt O14795)", "values": [{"measurement": "NP40-soluble protein abundance", "setting": "concentration: 1mM", "value": "1.02 ± 0.045"}, {"measurement": "NP40-soluble protein abundance", "setting": "concentration: 2mM", "value": "1.03 ± 0.09"}, {"measurement": "NP40-soluble protein abundance", "setting": "concentration: 4mM", "value": "1.03 ± 0.048"}, {"measurement": "NP40-soluble protein abundance", "setting": "concentration: 6mM", "value": "1.07 ± 0.12"}, {"measurement": "NP40-soluble protein abundance", "setting": "concentration: 8mM", "value": "1.05 ± 0.043"}, {"measurement": "NP40-soluble protein abundance", "setting": "concentration: 10mM", "value": "1.03 ± 0.099"}]}, {"target": "D6REX3 and related entries (UniProt O94979)", "values": [{"measurement": "NP40-soluble protein abundance", "setting": "concentration: 1mM", "value": "0.962 ± 0.027"}, {"measurement": "NP40-soluble protein abundance", "setting": "concentration: 2mM", "value": "0.942 ± 0.016"}, {"measurement": "NP40-soluble protein abundance", "setting": "concentration: 4mM", "value": "0.939 ± 0.023"}, {"measurement": "NP40-soluble protein abundance", "setting": "concentration: 6mM", "value": "0.941 ± 0.041"}, {"measurement": "NP40-soluble protein abundance", "setting": "concentration: 8mM", "value": "0.949 ± 0.023"}, {"measurement": "NP40-soluble protein abundance", "setting": "concentration: 10mM", "value": "0.945 ± 0.039"}]}]}
